According to article doi:10.1101/2020.11.16.384750:
No constants are given. Whether binding was seen depends on the method and setting. Binding seen in cells or lysates may run through a third protein. A yes stands for co-enrichment or nearness to the bait. Other partners may have been found. For some assays here: No binding means not detected with the bait. For some assays here: Where a sequence is shown, tags or fusion partners need not be part of it.

Amino acid sequences for entries named in this document (tags omitted).
UniProt P31749: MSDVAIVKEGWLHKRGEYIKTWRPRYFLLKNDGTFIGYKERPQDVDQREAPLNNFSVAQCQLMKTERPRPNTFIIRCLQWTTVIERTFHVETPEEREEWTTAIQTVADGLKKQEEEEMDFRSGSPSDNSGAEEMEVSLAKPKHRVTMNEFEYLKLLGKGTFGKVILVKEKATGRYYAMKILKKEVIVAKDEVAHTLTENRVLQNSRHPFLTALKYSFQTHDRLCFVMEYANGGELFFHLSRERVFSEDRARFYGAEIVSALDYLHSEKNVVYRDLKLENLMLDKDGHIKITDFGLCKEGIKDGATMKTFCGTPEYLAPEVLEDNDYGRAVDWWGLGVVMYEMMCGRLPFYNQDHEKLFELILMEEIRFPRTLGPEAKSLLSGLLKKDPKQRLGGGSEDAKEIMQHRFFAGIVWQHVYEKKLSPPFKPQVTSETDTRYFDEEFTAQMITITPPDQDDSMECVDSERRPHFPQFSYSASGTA

Key:
Test in all cases: affinity purification with mass spectrometry
[1] = biological target: T1, MAP3K7 (TAK1), C-terminal His-GSG-Flag tagged bait (UniProt O43318)
T1 sequence: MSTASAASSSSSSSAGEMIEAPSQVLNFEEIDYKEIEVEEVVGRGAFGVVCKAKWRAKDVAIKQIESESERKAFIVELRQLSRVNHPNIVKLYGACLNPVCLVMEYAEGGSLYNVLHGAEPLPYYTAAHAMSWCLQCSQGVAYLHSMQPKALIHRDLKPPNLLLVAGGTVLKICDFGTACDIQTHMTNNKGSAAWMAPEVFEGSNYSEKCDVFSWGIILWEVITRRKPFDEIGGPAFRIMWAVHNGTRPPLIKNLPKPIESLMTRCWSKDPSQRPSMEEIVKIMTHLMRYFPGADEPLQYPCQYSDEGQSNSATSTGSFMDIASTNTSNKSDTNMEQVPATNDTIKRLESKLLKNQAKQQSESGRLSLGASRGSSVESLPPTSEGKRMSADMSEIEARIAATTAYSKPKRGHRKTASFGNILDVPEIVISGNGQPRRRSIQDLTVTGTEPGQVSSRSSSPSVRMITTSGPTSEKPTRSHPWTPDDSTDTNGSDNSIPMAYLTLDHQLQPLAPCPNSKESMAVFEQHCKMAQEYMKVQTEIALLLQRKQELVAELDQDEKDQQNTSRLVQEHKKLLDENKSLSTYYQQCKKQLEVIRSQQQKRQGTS

[2] = biological target: AKT1, C-terminal His-GSG-Flag tagged bait (UniProt P31749)
[3] = biological target: T2, TRAF2, C-terminal His-GSG-Flag tagged bait (wild type) (UniProt Q12933)
T2 sequence: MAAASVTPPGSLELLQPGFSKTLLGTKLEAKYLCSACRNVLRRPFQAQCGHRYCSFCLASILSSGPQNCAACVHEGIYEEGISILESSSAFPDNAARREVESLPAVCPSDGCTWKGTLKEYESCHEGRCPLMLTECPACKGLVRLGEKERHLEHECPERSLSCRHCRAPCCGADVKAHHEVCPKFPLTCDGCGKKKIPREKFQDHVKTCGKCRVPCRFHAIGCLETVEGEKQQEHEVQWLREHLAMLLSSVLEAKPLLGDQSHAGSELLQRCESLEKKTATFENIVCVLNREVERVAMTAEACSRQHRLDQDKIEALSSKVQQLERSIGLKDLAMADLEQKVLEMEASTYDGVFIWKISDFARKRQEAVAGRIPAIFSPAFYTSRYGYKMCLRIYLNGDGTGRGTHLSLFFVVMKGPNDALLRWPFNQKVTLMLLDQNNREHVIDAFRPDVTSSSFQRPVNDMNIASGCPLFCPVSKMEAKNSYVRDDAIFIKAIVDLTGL

[4] = biological target: T3, TRAF2, C-terminal His-GSG-Flag tagged bait (wild type), Q12933; settings: remark: other sources report otherwise
T3 chain: T2 sequence

B1: CDC37 (protein, UniProt Q16543 1-378)
chain: MVDYSVWDHIEVSDDEDETHPNIDTASLFRWRHQARVERMEQFQKEKEELDRGCRECKRKVAECQRKLKELEVAEGGKAELERLQAEAQQLRKEERSWEQKLEEMRKKEKSMPWNVDTLSKDGFSKSMVNTKPEKTEEDSEEVREQKHKTFVEKYEKQIKHFGMLRRWDDSQKYLSDNVHLVCEETANYLVIWCIDLEVEEKCALMEQVAHQTIVMQFILELAKSLKVDPRACFRQFFTKIKTADRQYMEGFNDELEAFKERVRGRAKLRIEKAMKEYEEEERKKRLGPGGLDPVEVYESLPEELQKCFDVKDVQMLQDAISKMDPTDAKYHMQRCIDSGLWVPNSKASEAKEGEEAGPGDPLLEAVPKTGDEKDVSV
binding [1]: binds | binding [2]: binds

B2: IKBKE (protein, UniProt Q14164 1-716)
chain: MQSTANYLWHTDDLLGQGATASVYKARNKKSGELVAVKVFNTTSYLRPREVQVREFEVLRKLNHQNIVKLFAVEETGGSRQKVLVMEYCSSGSLLSVLESPENAFGLPEDEFLVVLRCVVAGMNHLRENGIVHRDIKPGNIMRLVGEEGQSIYKLTDFGAARELDDDEKFVSVYGTEEYLHPDMYERAVLRKPQQKAFGVTVDLWSIGVTLYHAATGSLPFIPFGGPRRNKEIMYRITTEKPAGAIAGAQRRENGPLEWSYTLPITCQLSLGLQSQLVPILANILEVEQAKCWGFDQFFAETSDILQRVVVHVFSLSQAVLHHIYIHAHNTIAIFQEAVHKQTSVAPRHQEYLFEGHLCVLEPSVSAQHIAHTTASSPLTLFSTAIPKGLAFRDPALDVPKFVPKVDLQADYNTAKGVLGAGYQALRLARALLDGQELMFRGLHWVMEVLQATCRRTLEVARTSLLYLSSSLGTERFSSVAGTPEIQELKAAAELRSRLRTLAEVLSRCSQNITETQESLSSLNRELVKSRDQVHEDRSIQQIQCCLDKMNFIYKQFKKSRMRPGLGYNEEQIHKLDKVNFSHLAKRLLQVFQEECVQKYQASLVTHGKRMRVVHETRNHLRLVGCSVAACNTEAQGVQESLSKLLEELSHQLLQDRAKGAQASPPPIAPYPSPTRKDLLLHMQELCEGMKLLASDLLDNNRIIERLNRVPAPPDV
binding [3]: binds

B3: RIPK1, Q13546 1-671 (protein)
chain: MQPDMSLNVIKMKSSDFLESAELDSGGFGKVSLCFHRTQGLMIMKTVYKGPNCIEHNEALLEEAKMMNRLRHSRVVKLLGVIIEEGKYSLVMEYMEKGNLMHVLKAEMSTPLSVKGRIILEIIEGMCYLHGKGVIHKDLKPENILVDNDFHIKIADLGLASFKMWSKLNNEEHNELREVDGTAKKNGGTLYYMAPEHLNDVNAKPTEKSDVYSFAVVLWAIFANKEPYENAICEQQLIMCIKSGNRPDVDDITEYCPREIISLMKLCWEANPEARPTFPGIEEKFRPFYLSQLEESVEEDVKSLKKEYSNENAVVKRMQSLQLDCVAVPSSRSNSATEQPGSLHSSQGLGMGPVEESWFAPSLEHPQEENEPSLQSKLQDEANYHLYGSRMDRQTKQQPRQNVAYNREEERRRRVSHDPFAQQRPYENFQNTEGKGTAYSSAASHGNAVHQPSGLTSQPQVLYQNNGLYSSHGFGTRPLDPGTAGPRVWYRPIPSHMPSLHNIPVPETNYLGNTPTMPFSSLPPTDESIKYTIYNSTGIQIGAYNYMEIGGTSSSLLDSTNTNFKEEPAAKYQAIFDNTTSLTDKHLDPIRENLGKHWKNCARKLGFTQSQIDEIDHDYERDGLKEKVYQMLQKWVMREGIKGATVGKLAQALHQCSRIDLLSSLIYVSQN
binding [4]: no binding

B4: CASP8, Q14790 1-479 (protein)
chain: MDFSRNLYDIGEQLDSEDLASLKFLSLDYIPQRKQEPIKDALMLFQRLQEKRMLEESNLSFLKELLFRINRLDLLITYLNTRKEEMERELQTPGRAQISAYRVMLYQISEEVSRSELRSFKFLLQEEISKCKLDDDMNLLDIFIEMEKRVILGEGKLDILKRVCAQINKSLLKIINDYEEFSKERSSSLEGSPDEFSNGEELCGVMTISDSPREQDSESQTLDKVYQMKSKPRGYCLIINNHNFAKAREKVPKLHSIRDRNGTHLDAGALTTTFEELHFEIKPHDDCTVEQIYEILKIYQLMDHSNMDCFICCILSHGDKGIIYGTDGQEAPIYELTSQFTGLKCPSLAGKPKVFFIQACQGDNYQKGIPVETDSEEQPYLEMDLSSPQTRYIPDEADFLLGMATVNNCVSYRNPAEGTWYIQSLCQSLRERCPRGDDILTILTEVNYEVSNKDDKKNMGKQMPQPTFTLRKKLVFPSD
binding [4]: no binding
